# Test results published in publication PMC12650828.
# The chains behind the UniProt entries cited, without tags or fusion partners.
# UniProt P19338, whole entry: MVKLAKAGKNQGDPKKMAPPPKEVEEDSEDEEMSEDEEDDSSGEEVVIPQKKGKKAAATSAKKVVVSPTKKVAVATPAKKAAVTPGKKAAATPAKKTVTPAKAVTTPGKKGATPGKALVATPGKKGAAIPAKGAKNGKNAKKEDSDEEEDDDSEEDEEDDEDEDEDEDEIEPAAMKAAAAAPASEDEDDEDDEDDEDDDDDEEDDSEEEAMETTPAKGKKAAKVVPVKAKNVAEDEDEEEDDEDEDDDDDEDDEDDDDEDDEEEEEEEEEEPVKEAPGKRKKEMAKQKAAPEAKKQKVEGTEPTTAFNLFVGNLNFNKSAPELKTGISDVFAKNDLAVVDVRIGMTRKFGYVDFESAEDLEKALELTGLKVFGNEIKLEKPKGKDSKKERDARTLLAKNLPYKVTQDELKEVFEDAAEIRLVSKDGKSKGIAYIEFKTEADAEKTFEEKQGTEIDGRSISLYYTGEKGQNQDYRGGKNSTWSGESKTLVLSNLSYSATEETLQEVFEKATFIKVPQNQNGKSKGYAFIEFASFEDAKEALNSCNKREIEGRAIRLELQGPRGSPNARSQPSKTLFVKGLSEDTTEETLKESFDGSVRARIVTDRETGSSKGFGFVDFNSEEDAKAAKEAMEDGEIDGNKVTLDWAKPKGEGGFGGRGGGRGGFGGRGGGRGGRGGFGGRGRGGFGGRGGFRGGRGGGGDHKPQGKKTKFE
# The exact form of at least one protein or probe is not confirmed. At least one result comes from cells or an extract, where the contact may be indirect. No signal at the amounts used counts as a negative.
# Target: cell-surface nucleolin (NCL) (UniProt P19338)
# Experiment: competition with a labelled probe
# Details: protein on the cell surface
Sequence,binding result (folded or branched DNA),binding result
GGTGGTGGTGGTTGTGGTGGTGGTGG [AS1411],binds,–
GUUAGAGUUUGAGAUUG [Mut (mutant sequence)],–,no binding
